One compound from patent US6872336B2, “Process for producing a pharmaceutical solid preparation containing a poorly soluble drug” (Shin-Etsu Chemical Co., Ltd., priority 2001, dated 2005) can be followed below.

A short description of the series: physchem. The note with it: pH 6.8.

≈ marks a conversion by molar mass, not a printed value.

The term solubility denotes the concentration that dissolves in the medium under given conditions. Read a high solubility as much dissolved substance.

`COC(=O)C1=C(C)NC(C)=C(C(=O)OC)C1c1ccccc1[N+](=O)[O-]` [nifedipine] returned a solubility of 0.01 mg/mL (≈ 28.9 µM).
